Patent publication EP2975047A1, “Wnt7a polypeptides and their use” (Université de Lausanne, priority 2014, dated 2016)
Part of at least one peptide drawing is inferred or uncertain, most often the ends. Residues, ends and D or L forms follow the SMILES beside them.

Test system: TCF-dependent transcription
Experiment: TopFlash luciferase-based assay of the Wnt-dependent transcriptional activity in HTB-19 cells
Assay type: cell-based
Conditions: synthetic peptides

CC[C@H](C)[C@H](N)C(=O)N1CCC[C@H]1C(=O)NCC(=O)N[C@@H](CC(C)C)C(=O)N[C@@H](C)C(=O)N1CCC[C@H]1C(=O)N[C@@H](CCCNC(=N)N)C(=O)O [IPGLAPR] (H-IPGLAPR-OH)
activity against Wnt3a-induced TopFlash activation: reveals no activity

CC(C)[C@H](NC(=O)[C@H](CO)NC(=O)CNC(=O)[C@@H](NC(=O)[C@@H](NC(=O)[C@@H]1CCCN1C(=O)[C@H](CC(=O)O)NC(=O)[C@H](CCC(=O)O)NC(=O)[C@H](CCC(=O)O)NC(=O)[C@H](CS)NC(=O)[C@H](Cc1ccc(O)cc1)NC(=O)[C@H](CC(N)=O)NC(=O)[C@@H]1CCCN1C(=O)[C@@H](N)CO)C(C)C)[C@@H](C)O)C(=O)NCC(=O)N[C@H](C(=O)N[C@@H](CCC(N)=O)C(=O)NCC(=O)N[C@@H](CCCNC(=N)N)C(=O)O)[C@@H](C)O [SPNYCEEDPVTGSVGTQGR] (H-SPNYCEEDPVTGSVGTQGR-OH)
activity against Wnt3a-induced TopFlash activation: inhibits the canonical signaling in a concentration-dependent manner
